The values below come from publication PMC7372013.

Protein sequences, listed by entry. Tags and fused reporters are not part of them. Residues count along the entry.
UniProt Q07021, residues 74-282: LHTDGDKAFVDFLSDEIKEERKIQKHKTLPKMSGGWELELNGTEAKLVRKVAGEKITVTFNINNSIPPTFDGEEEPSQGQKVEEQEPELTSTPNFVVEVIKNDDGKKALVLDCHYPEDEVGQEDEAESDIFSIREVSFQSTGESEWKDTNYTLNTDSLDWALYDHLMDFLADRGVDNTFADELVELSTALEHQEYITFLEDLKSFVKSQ
UniProt O00425: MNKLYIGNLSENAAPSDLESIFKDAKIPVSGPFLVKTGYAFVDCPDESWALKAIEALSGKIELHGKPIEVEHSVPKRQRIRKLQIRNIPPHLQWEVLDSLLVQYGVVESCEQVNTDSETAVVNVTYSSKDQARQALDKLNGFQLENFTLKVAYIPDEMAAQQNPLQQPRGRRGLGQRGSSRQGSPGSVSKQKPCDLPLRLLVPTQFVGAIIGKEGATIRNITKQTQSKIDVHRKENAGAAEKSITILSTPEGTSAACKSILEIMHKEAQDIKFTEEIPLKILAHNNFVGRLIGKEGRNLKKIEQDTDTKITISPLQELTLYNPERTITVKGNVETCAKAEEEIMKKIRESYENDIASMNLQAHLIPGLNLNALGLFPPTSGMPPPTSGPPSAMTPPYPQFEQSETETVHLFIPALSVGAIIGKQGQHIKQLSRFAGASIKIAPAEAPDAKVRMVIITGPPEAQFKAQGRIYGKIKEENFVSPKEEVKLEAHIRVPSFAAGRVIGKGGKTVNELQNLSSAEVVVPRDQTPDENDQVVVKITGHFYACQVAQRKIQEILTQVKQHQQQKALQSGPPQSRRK

Results are given in words; binding and its absence hold for the method and conditions named. Binding seen in cells or lysates may run through a third protein. Some entries that bind do so weakly or less than the wild type.

For the experiment, the target named is Globular C1q receptor (human (endogenous in H929, U266, MM1S)) (UniProt Q07021). Kind of experiment: co-IP; anti-gC1qR immunoprecipitation from H929 and U266 lysates, Western blot for IGF2BP3; cells treated with C1q or BSA. For orientation: A western blot detects proteins with antibodies after separation by electrophoresis.

Regarding “insulin-like growth factor 2 mRNA binding protein 3 (from UniProt O00425 1-579)”, the binding entry is “binds”.
